{"sequences": {"note": "The chains behind the UniProt entries cited, without tags or fusion partners.", "UniProt P35570": "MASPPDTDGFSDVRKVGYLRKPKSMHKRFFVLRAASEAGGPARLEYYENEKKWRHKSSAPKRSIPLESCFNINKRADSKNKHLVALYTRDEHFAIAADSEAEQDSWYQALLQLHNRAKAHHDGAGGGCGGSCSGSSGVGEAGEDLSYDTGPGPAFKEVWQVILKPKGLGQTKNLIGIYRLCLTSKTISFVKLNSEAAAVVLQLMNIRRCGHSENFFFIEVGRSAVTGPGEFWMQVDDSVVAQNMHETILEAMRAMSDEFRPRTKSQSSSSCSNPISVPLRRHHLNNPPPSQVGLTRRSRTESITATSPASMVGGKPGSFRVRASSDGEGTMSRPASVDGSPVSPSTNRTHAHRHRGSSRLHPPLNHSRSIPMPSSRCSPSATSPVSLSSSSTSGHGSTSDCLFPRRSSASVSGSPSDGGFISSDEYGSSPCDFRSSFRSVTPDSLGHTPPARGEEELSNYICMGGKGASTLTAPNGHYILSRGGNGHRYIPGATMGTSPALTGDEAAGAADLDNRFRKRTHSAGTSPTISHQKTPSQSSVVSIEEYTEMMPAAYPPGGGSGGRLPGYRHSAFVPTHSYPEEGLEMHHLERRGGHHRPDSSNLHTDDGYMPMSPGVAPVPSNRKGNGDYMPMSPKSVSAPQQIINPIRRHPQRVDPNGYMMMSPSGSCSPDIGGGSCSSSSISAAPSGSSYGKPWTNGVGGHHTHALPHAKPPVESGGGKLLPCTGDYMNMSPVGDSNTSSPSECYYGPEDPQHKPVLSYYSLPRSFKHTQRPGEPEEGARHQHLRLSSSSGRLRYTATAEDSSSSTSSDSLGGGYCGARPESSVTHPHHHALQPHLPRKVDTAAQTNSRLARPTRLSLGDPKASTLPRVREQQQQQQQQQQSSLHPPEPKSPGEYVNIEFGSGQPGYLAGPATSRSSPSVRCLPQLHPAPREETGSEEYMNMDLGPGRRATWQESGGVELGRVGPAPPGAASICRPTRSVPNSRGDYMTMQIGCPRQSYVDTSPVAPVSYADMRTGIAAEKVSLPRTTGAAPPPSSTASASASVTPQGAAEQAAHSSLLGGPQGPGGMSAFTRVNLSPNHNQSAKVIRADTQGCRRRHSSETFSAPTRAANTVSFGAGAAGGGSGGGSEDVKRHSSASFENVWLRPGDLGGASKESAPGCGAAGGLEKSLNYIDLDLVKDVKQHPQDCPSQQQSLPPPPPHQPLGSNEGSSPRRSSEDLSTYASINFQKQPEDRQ"}, "source": "paper PMC6937568", "biological_target": "Insulin receptor substrate 1 (endogenous, rat primary neurons) (rat (endogenous in rat primary neurons)) (UniProt P35570)", "test": "proximity ligation; in situ PLA (DuoLink kit) in rat primary neurons with mouse anti-DYRK1A and rabbit anti-IRS-1 primary antibodies; negative controls with one antibody replaced by IgG; confocal Z-stacks", "note": "No constants are given. Whether binding was seen depends on the method and setting. Binding seen in cells or lysates may run through a third protein. Some entries that bind do so weakly or less than the wild type."}
{"substance": "Dual-specificity tyrosine phosphorylation-regulated kinase 1A (endogenous, rat primary neurons) (from UniProt Q63470 1-763) (enzyme)", "values": [{"measurement": "binding", "result": "binds"}]}
